# Values from PubChem BioAssay AID1224826 (NIAID, 2016)
# Aim: 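Regulators of Tlr4 signalling leading to Tnf-alpha expression in macrophages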 (primary screen)
# Cells: RAW264.7 G9 macrophages from mouse bearing reporters for p65 (GFP) and the Tnf promoter (mCherry)
# Reagent: siRNA pool against mouse genes, 100 nM
# Timing: 16 h of LPS stimulation, after 2 days of siRNA transfection
# Treatment: bacterial lipopolysaccharide (Salmonella minnesota R595), 10 ng/ml
# Detection: 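Imaged Tnf reporter mCherry in nuclei, minus background, normalised per plate to the median and expressed as robust z-scores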
# Reading the numbers: Tnf reporter robust z-score: higher = stronger Tnf promoter reporter signal after LPS
# Rule for the call: 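Called active when robust z-score is at most -1.3, matching the median of the Tlr4 knock-down control, or over 3; control wells and wells with under 50 cells never active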
# Calls: active = Tnf reporter clearly lowered or raised; inactive = no clear change in Tnf reporter
# Here is one part, drawn at random, of about 17,000 reagents. About 1,110 of all reagents (6.6%) were called active. 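Active means lowered or raised reporter signal; replicate intensities are raw and not normalised per plate.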 Unmarked entries are inactive. The numbers tell different reagents against one gene apart. Not all columns of the deposit are shown.
target,reagent,Tnf reporter robust z-score,fewer than 50 cells in well
Inpp5k (inositol polyphosphate 5-phosphatase K),1,-0.56,enough cells in well
Pramel12 (PRAME like 12),1,,fewer than 50 cells per well; well left out of calls
"Atp11a (ATPase, class VI, type 11A)",1,-0.77,enough cells in well
Rbm12b1 (RNA binding motif protein 12 B1),1,0.75,enough cells in well
Dhx36 (DEAH-box helicase 36),1,-0.65,enough cells in well
Oat (ornithine aminotransferase),1,0.68,enough cells in well
Hsd3b5,1,0.71,enough cells in well
Ppme1 (protein phosphatase methylesterase 1),1,0.51,enough cells in well
Or56b35 (olfactory receptor family 56 subfamily B member 35),1,-0.24,enough cells in well
Hrh3 (histamine receptor H3),1,0.16,enough cells in well
Sergef (secretion regulating guanine nucleotide exchange factor),1,-0.6,enough cells in well
"Serpina1e (serine (or cysteine) peptidase inhibitor, clade A, member 1E)",1,-0.1,enough cells in well
Krt18 (keratin 18),1,-0.07,enough cells in well
Trp53rkb (transformation related protein 53 regulating kinase B),1,-0.52,enough cells in well
"Abcb1b (ATP-binding cassette, sub-family B member 1B)",1,0.31,enough cells in well
Clvs2 (clavesin 2),1,0.3,enough cells in well
B3galt5,1,0.99,enough cells in well
Hsf1 (heat shock factor 1),1,0.12,enough cells in well
Cnih1 (cornichon family AMPA receptor auxiliary protein 1),1,0.01,enough cells in well
"Selplg (selectin, platelet (p-selectin) ligand)",1,0.05,enough cells in well
Clca2 (chloride channel accessory 2),1,-0.7,enough cells in well
Wfdc1 (WAP four-disulfide core domain 1),1,-0.05,enough cells in well
Zc3h7a (zinc finger CCCH type containing 7 A),1,0.9,enough cells in well
Amn (amnionless),1,0.55,enough cells in well
Or5b12b (olfactory receptor family 5 subfamily B member 12B),1,1.06,enough cells in well
"Fos (Fos proto-oncogene, AP-1 transcription factor subunit)",1,-1.08,enough cells in well
Mt1 (metallothionein 1),1,-1.73 (active),enough cells in well
Cdc50b (cell division cycle 50 P4-ATPase accessory subunit B),1,-0.5,enough cells in well
Acsm1 (acyl-CoA synthetase medium-chain family member 1),1,-0.11,enough cells in well
Faap24 (Fanconi anemia core complex associated protein 24),1,,fewer than 50 cells per well; well left out of calls
Sox3 (SRY (sex determining region Y)-box 3),1,-0.14,enough cells in well
Kctd20 (potassium channel tetramerisation domain containing 20),1,1.22,enough cells in well
"Oprm1 (opioid receptor, mu 1)",1,0.95,enough cells in well
Garin2 (golgi associated RAB2 interactor 2),1,,fewer than 50 cells per well; well left out of calls
"Grpel2 (GrpE-like 2, mitochondrial)",1,4.15 (active),enough cells in well
Pcdhb19 (protocadherin beta 19),1,0.38,enough cells in well
Drg2 (developmentally regulated GTP binding protein 2),1,0.11,enough cells in well

Copied from above, 4 entries:
target,reagent,Tnf reporter robust z-score,fewer than 50 cells in well
Clca2 (chloride channel accessory 2),1,-0.7,enough cells in well
Wfdc1 (WAP four-disulfide core domain 1),1,-0.05,enough cells in well
Zc3h7a (zinc finger CCCH type containing 7 A),1,0.9,enough cells in well
Amn (amnionless),1,0.55,enough cells in well

More reagents follow:
target,reagent,Tnf reporter robust z-score,fewer than 50 cells in well
5330430C04Rik (RIKEN cDNA 5330430C04 gene),1,-0.43,enough cells in well
Nkx3-2 (NK3 homeobox 2),1,0.27,enough cells in well
Ano2 (anoctamin 2),1,,fewer than 50 cells per well; well left out of calls
Grb14 (growth factor receptor bound protein 14),1,0.24,enough cells in well
Pef1 (penta-EF hand domain containing 1),1,0.29,enough cells in well
Or10ak14 (olfactory receptor family 10 subfamily AK member 14),1,-1.36 (active),enough cells in well
"D1Pas1 (DNA segment, Chr 1, Pasteur Institute 1)",1,-1.36 (active),enough cells in well
Edc4 (enhancer of mRNA decapping 4),1,2.06,enough cells in well
"Capg (capping actin protein, gelsolin like)",1,-0.24,enough cells in well
"Ddr1 (discoidin domain receptor family, member 1)",1,0.63,enough cells in well
Upp1 (uridine phosphorylase 1),1,0.68,enough cells in well
Mmp13 (matrix metallopeptidase 13),1,-0.38,enough cells in well
Wdr19 (WD repeat domain 19),1,0.19,enough cells in well
Sccpdh (saccharopine dehydrogenase (putative)),1,-0.89,enough cells in well
Pde4dip (phosphodiesterase 4D interacting protein (myomegalin)),1,-0.32,enough cells in well
Pde4dip (phosphodiesterase 4D interacting protein (myomegalin)),2,0.02,enough cells in well
Pde4dip (phosphodiesterase 4D interacting protein (myomegalin)),3,-0.31,enough cells in well
Hgfac (hepatocyte growth factor activator),1,-0.66,enough cells in well
Snx31 (sorting nexin 31),1,-0.97,enough cells in well
Pkd1,1,0.52,enough cells in well
Nox4 (NADPH oxidase 4),1,0.78,enough cells in well
